Values quoted from earlier work, collected in article PMC8983078 (Drug Discovery Today, 2022).

Key:
[1] = system: SARS-CoV-1; conditions: cited from earlier work
[2] = system: Middle East respiratory syndrome (MERS)-CoV; conditions: cited from earlier work

SMILES: Cc1ccc(NC(=O)c2ccc(CN3CCN(C)CC3)cc2)cc1Nc1nccc(-c2cccnc2)n1 [Imatinib]
- antiviral activity against SARS-CoV-1 [1]: antiviral activity
- antiviral activity against MERS-CoV [2]: antiviral activity
